The text below walks through data of article PMC7788595.

Amino acid sequences for entries named in this document (tags omitted). Residues count along the entry.
UniProt P19838, residues 1-433: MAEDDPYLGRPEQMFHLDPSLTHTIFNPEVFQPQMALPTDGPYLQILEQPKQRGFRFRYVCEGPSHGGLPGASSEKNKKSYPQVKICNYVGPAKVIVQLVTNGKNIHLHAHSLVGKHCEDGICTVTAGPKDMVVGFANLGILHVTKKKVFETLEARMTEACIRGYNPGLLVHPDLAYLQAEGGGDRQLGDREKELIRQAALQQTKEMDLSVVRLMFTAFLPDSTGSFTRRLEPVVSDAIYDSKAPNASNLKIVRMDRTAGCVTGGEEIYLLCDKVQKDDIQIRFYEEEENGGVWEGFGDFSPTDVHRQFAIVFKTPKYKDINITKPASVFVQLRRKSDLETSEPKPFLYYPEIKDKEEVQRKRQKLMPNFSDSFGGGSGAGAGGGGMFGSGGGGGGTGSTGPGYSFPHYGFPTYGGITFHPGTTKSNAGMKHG

The target of this assay is T1, sfGFP-Bcl3 (UniProt P20749).
T1 sequence: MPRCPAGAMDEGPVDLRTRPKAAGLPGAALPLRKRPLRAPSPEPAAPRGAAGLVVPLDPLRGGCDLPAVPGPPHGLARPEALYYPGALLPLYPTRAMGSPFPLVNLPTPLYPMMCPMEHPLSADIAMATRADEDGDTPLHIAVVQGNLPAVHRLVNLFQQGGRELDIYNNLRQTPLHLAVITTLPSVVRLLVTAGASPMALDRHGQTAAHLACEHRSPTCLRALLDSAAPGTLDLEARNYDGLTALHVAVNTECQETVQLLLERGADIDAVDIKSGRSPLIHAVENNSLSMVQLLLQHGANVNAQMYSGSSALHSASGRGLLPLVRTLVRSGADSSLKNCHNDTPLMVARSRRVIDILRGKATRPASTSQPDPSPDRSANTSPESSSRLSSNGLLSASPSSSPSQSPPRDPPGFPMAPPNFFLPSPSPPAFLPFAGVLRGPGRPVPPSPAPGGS
As to the kind of experiment: co-purification; the two fusion proteins produced and purified as the complex (Supporting Methods, Figure S8b).

No constants are given. Whether binding was seen depends on the method and setting. Some results given as binding are weak or reduced against the parent protein; the word gives no strength. Sequences can lack the tags named with a protein.

Take P50-Venus (from UniProt P19838 1-433): the binding result was “binds”.
